Assay results reported in the supplement of paper PMC7411640.
Structures can show the parent of a compound that is named as a salt. The list shows a part of the results. Most values lie within the scatter of the assay; repeated measurements hardly agree.

System: MDA-MB-468
Assay: phospho-S6 immunofluorescence (DAPI-normalised), per-plate z-score; higher = higher phospho-S6 signal (less pathway suppression)
Conditions: 24 h
Procedure: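 GPCR-targeted compound library (MedChemExpress HY-L006) tested on MDA-MB-468 PTEN-null TNBC cells in 384-well plates at 0.1, 1 or 10 uM, combined with vehicle, GDC0941 450 nM or lapatinib 1 uM, for 24 h. Phospho-S6 (S240/244) immunofluorescence normalised to DAPI and expressed as a per-plate z-score; values are the mean of biological triplicates.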

[1] = compound 0.1 µM, co-treatment: GDC0941 450 nM
[2] = compound 0.1 µM, co-treatment: lapatinib 1 uM
[3] = compound 0.1 µM, co-treatment: vehicle
[4] = compound 1 µM, co-treatment: GDC0941 450 nM
[5] = compound 1 µM, co-treatment: lapatinib 1 uM
[6] = compound 1 µM, co-treatment: vehicle
[7] = compound 10 µM, co-treatment: GDC0941 450 nM
[8] = compound 10 µM, co-treatment: lapatinib 1 uM
[9] = compound 10 µM, co-treatment: vehicle

Compound | phospho-S6 immunofluorescence (z-score) [1] | phospho-S6 immunofluorescence (z-score) [2] | phospho-S6 immunofluorescence (z-score) [3] | phospho-S6 immunofluorescence (z-score) [4] | phospho-S6 immunofluorescence (z-score) [5] | phospho-S6 immunofluorescence (z-score) [6] | phospho-S6 immunofluorescence (z-score) [7] | phospho-S6 immunofluorescence (z-score) [8] | phospho-S6 immunofluorescence (z-score) [9]
CSCC[C@H](NC(=O)[C@H](Cc1ccccc1)NC(=O)CNC(=O)CNC(=O)[C@@H](N)Cc1ccc(O)cc1)C(=O)O | -0.32 | 0.59 | 0.61 | -0.17 | 0 | 1.54 | -0.41 | -0.12 | -0.05
COc1ccc2[nH]cc(C3=CCNCC3)c2c1 | 0.49 | 0.52 | 0.84 | -0.21 | -0.03 | 0.49 | -0.19 | -2.58 | -0.11
O=C1CC[C@@]2(O)[C@H]3Cc4ccc(O)c5c4[C@@]2(CCN3CC2CC2)[C@H]1O5 [Naltrexone (Hydrochloride)] | 1.55 | 1.73 | 0.75 | 1.72 | 1.44 | 0.32 | 0.88 | 0.25 | 1.41
O=C(O[C@H]1C[N+]2(CCCOc3ccccc3)CCC1CC2)C(O)(c1cccs1)c1cccs1 [Aclidinium (Bromide)] | -0.5 | -0.88 | -1.77 | 0.6 | 0.62 | -0.71 | 0.75 | 1.09 | -0.87
CC(C)C[C@H]1C(=O)N2CCC[C@H]2[C@]2(O)O[C@](NC(=O)[C@@H]3C=C4c5cccc6[nH]c(Br)c(c56)C[C@H]4N(C)C3)(C(C)C)C(=O)N12 [Bromocriptine (mesylate)] | -0.66 | -0.84 | -0.47 | -0.4 | -0.97 | -1.26 | -3.83 | -3.57 | -1.61
O=C(O[C@H]1CN2CCC1CC2)N(Cc1cc(F)c(F)c(F)c1)c1cccc(F)c1 [Tarafenacin (D-tartrate)] | 0.57 | 0.42 | 0.79 | 1.19 | 0.52 | 0.89 | 0.34 | -1.58 | 1.05
COc1ccc2c(c1)[nH]c1c(C)nccc12 [Harmine] | 0.34 | -0.78 | -0.35 | 0.44 | -1.56 | -0.14 | -0.75 | -1.57 | -1.55
C=CCN1C[C@H](C(=O)N(CCCN(C)C)C(=O)NCC)C[C@@H]2c3cccc4[nH]cc(c34)C[C@H]21 [Cabergoline] | 0.33 | 0.08 | -0.8 | 0.65 | -0.77 | -0.28 | 0.82 | -0.33 | -0.33
CO[C@]12C[C@@H](COC(=O)c3cncc(Br)c3)CN(C)[C@@H]1Cc1cn(C)c3cccc2c13 [Nicergoline] | 0.67 | 0.84 | -0.63 | -0.3 | -0.51 | 0.13 | 0.57 | -0.56 | -0.38
COC(=O)C1=CCCN(C)C1 [Arecoline (hydrobromide)] | 1.07 | 0.75 | 0.13 | 1.23 | -0.42 | 0.28 | 0.22 | 0.44 | 0.56
CN1C[C@H](C(=O)N[C@]2(C)O[C@@]3(O)[C@@H]4CCCN4C(=O)[C@H](Cc4ccccc4)N3C2=O)C[C@@H]2c3cccc4[nH]cc(c34)C[C@H]21 [Dihydroergotamine (mesylate)] | 1.28 | 0.2 | 0.93 | 0.36 | 1.4 | 0.95 | 1.05 | 0 | 0.86

Looked up above:
Under phospho-S6 immunofluorescence (z-score) [9], `COc1ccc2c(c1)[nH]c1c(C)nccc12` [Harmine] shows -1.55
Under phospho-S6 immunofluorescence (z-score) [4], `COc1ccc2[nH]cc(C3=CCNCC3)c2c1` shows -0.21
